At least one compound was matched to its structure with a doubt left.
Columns and labels:
Format in all cases: cell-based, human
[1] = tested on: hMNs; assay: neurite outgrowth, Sholl analysis of hMNs; conditions: FIG. 34
Protocol: Given the reported role of STMN2 in regulating axonal growth by promoting the dynamic instability of microtubules (77), phenotypic assays were carried out characterizing neurite outgrowth in the STMN2−/− hMNs. After 7 days in culture, sorted hMNs were fixed and stained for β-III-tubulin to label the neuronal processes (FIG. 4E).
Individual Tuj1-positive neurons used for Sholl analyses were randomly selected and imaged using a Nikon Eclipse TE300 with a 40× objective. The neurites were traced using the ImageJ (NIH) plugin NeuronJ (78), and Sholl analysis was performed using the Sholl tool of Fiji (96), quantifying the number of intersections at intervals from the cell body. Statistical analysis was performed by comparing the number of intersections of KO clones with the parental WT line for each 10 μm interval using Prism 6 (Graph Pad, La Jolla, CA, USA). Significance was assessed by a standard Student's t-test, with a p value of p<0.05 considered as significant.

[2] = tested on: hMNs; assay: axon regeneration after injury in microfluidic devices, hMNs treated with JNKi; conditions: FIG. 36
[3] = tested on: STMN2; assay: STMN2 protein levels in neurons treated with JNKi with or without siTDP43
[4] = tested on: STMN2 protein; assay: immunoblot of STMN2 protein levels in patient's motor neurons following reduction of TDP-43 by siRNA; conditions: patient's motor neurons after TDP-43 reduction by siRNA; compared to NTC / siRNA controls
Protocol: For analysis of TDP-43 and STMN2 protein expression levels, d10 MNs were lysed in RIPA buffer (150 mM Sodium Chloride; 1% Triton X-100; 0.5% sodium deoxycholate; 0.1% SDS; 50 mM Tris pH 8.0) containing protease and phosphatase inhibitors (Roche) for 20 min on ice, and centrifuged at high speed. 200 μL of RIPA buffer per well of 24-well culture were routinely used, which yielded ˜20 μg of total protein as determined by BCA (Thermo Scientific). After two washes with RIPA buffer, insoluble pellets were resuspended in 200 μl of UREA buffer (Bio-Rad). For immunoblot assays 2-3 μg of total protein were separated by SDS-PAGE (BioRad), transferred to PDVF membranes (BioRad) and probed with antibodies against TDP-43 (1:1000, ProteinTech Group), GAPDH (1:1000, Millipore) and STMN2 (1:3000, Novus). Insoluble pellets were loaded based on protein concentration of correspondent RIPA-soluble counterparts. The same PDVF membrane was immunoassayed 2-3 times using Restore™ PLUS Western Blot Stripping Buffer (Thermo Scientific). GAPDH levels were used to normalized each sample, and LiCor software was used to quantitate protein band signal.
After establishing and validating that the STMN2 ASOs could affect transcript levels, it was sought to determine if they could also rescue diminished protein levels observed after TDP-43 reduction. […]

`Oc1c2ccccc2c2c3c(cccc13)N=N2` [SP600125] was tested, and the “neurite outgrowth / branching” value [1] was “increases neurite outgrowth”, the “axon regeneration following injury” value [2] was “increases axon regeneration” and the STMN2 protein levels [3] was “boosts STMN2 levels”. For the same compound, the STMN2 protein levels [4] was “increased after JNK inhibition”.
